Data: PMC12766987
Results are given in words; binding and its absence hold for the method and conditions named. In cells and extracts the contact can be indirect. Some binding calls cover weakened binding; strength is not graded here. For some assays here: Sequences can lack the tags named with a protein. Values belong to the binder of their own block, whether it stands above or below them.

How the values were obtained:
[1] = target: T1, Flag-tagged Calhm6 (293T) (UniProt Q8C9E8); test: co-IP; Figure S7D-F, cited beside Figure 7K,L; format not shown
T1 sequence: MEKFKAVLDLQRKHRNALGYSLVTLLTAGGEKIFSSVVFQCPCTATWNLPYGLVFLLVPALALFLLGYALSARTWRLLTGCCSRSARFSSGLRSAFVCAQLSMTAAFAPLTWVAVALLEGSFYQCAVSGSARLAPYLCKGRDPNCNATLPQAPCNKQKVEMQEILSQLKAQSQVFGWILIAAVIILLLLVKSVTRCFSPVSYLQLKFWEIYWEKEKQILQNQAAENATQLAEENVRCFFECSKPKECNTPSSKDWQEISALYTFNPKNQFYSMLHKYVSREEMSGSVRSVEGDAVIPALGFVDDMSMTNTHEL

[2] = target: T2, HA-tagged Calhm6 (UniProt Q8C9E8); test: co-IP; 293T lysates, Myc-CaMK4, HA-Calhm6 and Flag-tagged wild-type Chp1 or Chp1 (S99A); anti-HA IP, blot with anti-HA, anti-Myc, anti-Flag (Figure 7F)
T2 sequence: T1 sequence

[3] = target: T3, GFP-tagged Calhm6 fragment, EF-Hand/S4 domain (residues 129-203) (UniProt Q8C9E8); test: co-IP; 293T lysates, Flag-CaMK4 or Flag-Chp1 with fragments of GFP-tagged Calhm6; anti-GFP IP, blot with tag antibodies (Figure 7K, 7L)
T3 sequence: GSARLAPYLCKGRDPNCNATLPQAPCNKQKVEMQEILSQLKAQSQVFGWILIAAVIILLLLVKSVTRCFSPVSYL

[4] = target: T4, Flag-tagged CaMK4 (UniProt P08414); test: co-IP; 293T cells expressing Flag-CaMK4 and Myc-Chp1, treated with PBS, CaCl2, BAPTA-AM or Ca2+-free DMEM for 3 h; anti-Flag immunoprecipitates probed with tag antibodies (Figure 6I)
T4 sequence: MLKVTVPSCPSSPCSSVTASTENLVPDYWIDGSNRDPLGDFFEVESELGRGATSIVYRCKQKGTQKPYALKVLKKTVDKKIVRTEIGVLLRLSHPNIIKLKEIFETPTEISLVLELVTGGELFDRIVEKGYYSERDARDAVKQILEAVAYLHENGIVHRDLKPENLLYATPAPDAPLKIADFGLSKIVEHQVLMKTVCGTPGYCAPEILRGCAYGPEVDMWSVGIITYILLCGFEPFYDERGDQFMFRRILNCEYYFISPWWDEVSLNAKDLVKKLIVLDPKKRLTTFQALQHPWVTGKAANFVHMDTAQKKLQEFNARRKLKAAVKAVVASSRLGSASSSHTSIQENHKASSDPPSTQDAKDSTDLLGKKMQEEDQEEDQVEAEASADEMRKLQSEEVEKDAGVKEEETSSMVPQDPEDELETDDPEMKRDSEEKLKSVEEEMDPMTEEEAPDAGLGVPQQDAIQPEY

[5] = target: T5, Myc-tagged CaMK4 (UniProt P08414); test: co-IP; 293T cells, combinations of Myc-CaMK4, HA-Chp1 and Flag-Calhm6; anti-Myc immunoprecipitates probed with tag antibodies (Figure 7J, as in 7H)
T5 sequence: T4 sequence

[6] = target: T1, Flag-tagged Calhm6 (293T); test: co-IP; 293T lysates, combinations of HA-Chp1, Myc-CaMK4 and Flag-Calhm6; anti-Flag IP, blot with anti-HA, anti-Myc, anti-Flag (Figure 7A, 7D)
[7] = target: T6, Calhm6, endogenous in BMDMs (mouse (endogenous in BMDMs)) (UniProt Q8C9E8); test: co-IP; immunoprecipitates of wild-type BMDMs treated for 0 or 60 min with IL-4; precipitating antibody not told (Figure 7I)
T6 sequence: T1 sequence

[8] = target: T7, CaMK4, endogenous in BMDMs (mouse (endogenous in BMDMs)) (UniProt P08414); test: as above
T7 sequence: T4 sequence

[9] = target: T1, Flag-tagged Calhm6 (293T); test: co-IP; Calhm6 with Calhm6, with or without co-expression of Chp1 and CaMK4 (Figure S7C); tags and cells not shown
[10] = target: T8, Flag-tagged wild-type Chp1 (UniProt P61022); test: co-IP; 293T lysates, Flag-tagged wild-type Chp1 or Chp1 (S99A) with HA-Calhm6; anti-Flag IP, blot with anti-HA and anti-Flag (Figure 7E)
T8 sequence: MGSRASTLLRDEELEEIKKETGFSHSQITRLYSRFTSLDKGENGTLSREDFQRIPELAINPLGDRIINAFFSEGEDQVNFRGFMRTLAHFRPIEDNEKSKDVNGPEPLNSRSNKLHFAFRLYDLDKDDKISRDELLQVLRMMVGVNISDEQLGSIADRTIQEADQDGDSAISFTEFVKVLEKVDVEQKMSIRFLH

[11] = target: T8, Flag-tagged wild-type Chp1; test: co-IP; 293T lysates, Flag-tagged wild-type Chp1 or Chp1 (S99A) with HA-CaMK4; anti-Flag IP, blot with anti-HA and anti-Flag (Figure 6M)

binding [1]: binds
B1: EF-hand 1 domain of Chp1 (residues 1-61) (domain or fragment, UniProt P61022 1-61)
chain: MGSRASTLLRDEELEEIKKETGFSHSQITRLYSRFTSLDKGENGTLSREDFQRIPELAINP

binding [2]: binds | binding [3]: binds
B2: Flag-tagged wild-type Chp1 (protein, UniProt P61022 1-195)
chain: T8 sequence

binding [4]: binds
B3: Myc-tagged Chp1 (protein, UniProt P61022 1-195)
chain: T8 sequence

binding [5]: binds | binding [6]: binds
B4: HA-tagged Chp1 (protein, UniProt P61022 1-195)
chain: T8 sequence

binding [7]: binds | binding [8]: binds
B5: Chp1, endogenous in BMDMs (protein, UniProt P61022 1-195)
chain: T8 sequence

binding [1]: binds
B6: kinase domain of CaMK4 (residues 1-296) (domain or fragment, UniProt P08414 1-296)
chain: MLKVTVPSCPSSPCSSVTASTENLVPDYWIDGSNRDPLGDFFEVESELGRGATSIVYRCKQKGTQKPYALKVLKKTVDKKIVRTEIGVLLRLSHPNIIKLKEIFETPTEISLVLELVTGGELFDRIVEKGYYSERDARDAVKQILEAVAYLHENGIVHRDLKPENLLYATPAPDAPLKIADFGLSKIVEHQVLMKTVCGTPGYCAPEILRGCAYGPEVDMWSVGIITYILLCGFEPFYDERGDQFMFRRILNCEYYFISPWWDEVSLNAKDLVKKLIVLDPKKRLTTFQALQHPWV

binding [9]: binds
B7: Flag-tagged Calhm6 (293T) (protein, UniProt Q8C9E8 1-313)
chain: T1 sequence

binding [10]: binds
B8: HA-tagged Calhm6 (protein, UniProt Q8C9E8 1-313)
chain: T1 sequence

binding [2]: binds | binding [6]: binds
B9: Myc-tagged CaMK4 (protein, UniProt P08414 1-469)
chain: T4 sequence

binding [11]: binds
B10: HA-tagged CaMK4 (protein, UniProt P08414 1-469)
chain: T4 sequence
